Measured values as given in US8802596B2, “Multi-functional ionic liquid compositions for overcoming polymorphism and imparting improved properties for active pharmaceutical, biological, nutritional, and energetic ingredients” (Board of Trustees of the University of Alabama, priority 2005, dated 2014).

Experiment: Taste of the salt
Conditions: in words
With `CC1=CC([O-])=NS(=O)(=O)O1.CCCCCCCCCC[N+](C)(C)CCCCCCCCCC` [[DDA][Ace], didecyldimethylammonium acesulfamate] the Taste was “sweet”. For `CCCCCCCCCC[N+](C)(C)CCCCCCCCCC.O=C1[N-]S(=O)(=O)c2ccccc21` [[DDA][Sac], Didecyldimethylammonium Saccharinate], the Taste was “sweet”. With `CC1=CC(=O)[N-]S(=O)(=O)O1.CCCCCCCCCCCC[N+](C)(C)Cc1ccccc1` [[BA][Ace], benzalkonium acesulfamate] the Taste was “sweet taste”. In the case of `CCCCCCCCCCCC[N+](C)(C)Cc1ccccc1.O=C1[N-]S(=O)(=O)c2ccccc21` [[BA][Sac], benzalkonium saccharinate], the Taste is reported as “very sweet in taste”.
